Assay [1] deals with T1, TgROP18 tagged with GFP and Flag, from the RH-ROP18-GFP-Flag strain (Toxoplasma gondii (RH strain)) (UniProt Q2PAY2).
T1 sequence: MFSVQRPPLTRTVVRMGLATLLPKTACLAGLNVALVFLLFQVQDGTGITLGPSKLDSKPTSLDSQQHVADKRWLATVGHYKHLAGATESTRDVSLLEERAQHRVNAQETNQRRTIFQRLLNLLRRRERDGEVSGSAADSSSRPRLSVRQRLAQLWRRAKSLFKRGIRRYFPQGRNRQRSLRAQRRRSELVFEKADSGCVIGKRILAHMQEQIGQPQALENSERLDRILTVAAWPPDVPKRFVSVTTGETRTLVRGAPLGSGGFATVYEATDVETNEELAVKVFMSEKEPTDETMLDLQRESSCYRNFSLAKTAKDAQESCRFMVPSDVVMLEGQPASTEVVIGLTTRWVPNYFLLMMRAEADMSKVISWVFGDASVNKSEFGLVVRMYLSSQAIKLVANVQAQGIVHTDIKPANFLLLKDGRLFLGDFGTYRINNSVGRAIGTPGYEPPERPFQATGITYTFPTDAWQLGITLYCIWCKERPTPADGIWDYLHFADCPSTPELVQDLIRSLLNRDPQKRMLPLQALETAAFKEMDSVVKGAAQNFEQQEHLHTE
Briefly: co-IP; SF268 cells infected with the RH-ROP18-GFP-Flag strain for 36 h; lysates immunoprecipitated with anti-Flag antibody and protein A-agarose at 4 °C, western blot for endogenous P2X1. (A western blot detects proteins with antibodies after separation by electrophoresis.)

The target in assay [2] is T2, Human purinergic receptor P2X1 fused to EYFP (pEYFP-C1-P2X1) (human) (UniProt P51575).
T2 sequence: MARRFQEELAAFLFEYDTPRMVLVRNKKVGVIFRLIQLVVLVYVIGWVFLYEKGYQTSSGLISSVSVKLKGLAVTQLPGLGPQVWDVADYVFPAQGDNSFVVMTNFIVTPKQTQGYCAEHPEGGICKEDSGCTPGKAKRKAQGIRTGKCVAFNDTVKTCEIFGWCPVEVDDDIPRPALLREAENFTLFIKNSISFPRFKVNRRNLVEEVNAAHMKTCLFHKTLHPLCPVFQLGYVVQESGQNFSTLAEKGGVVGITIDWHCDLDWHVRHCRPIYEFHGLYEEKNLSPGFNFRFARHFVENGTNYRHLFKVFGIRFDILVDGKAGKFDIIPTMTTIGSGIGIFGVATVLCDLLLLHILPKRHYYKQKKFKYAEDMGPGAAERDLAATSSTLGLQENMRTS
Put plainly: FRET or BRET; COS7 cells co-transfected with pECFP-N1-ROP18 (donor) and pEYFP-C1-P2X1 (acceptor), fixed in 4% paraformaldehyde 48 h after transfection; FRET efficiency by confocal laser scanning microscopy. In general terms: In BRET a luciferase serves as donor, and the signal depends on an acceptor being close.

The target in assay [3] is T3, HA-tagged P2X1 (pcDNA3.1-P2X1-HA), full length (human) (UniProt P51575).
T3 sequence: T2 sequence
Briefly: co-IP; COS7 cells transfected for 48 h with pcDNA3.1-P2X1-HA or pcDNA3.1-P2X1Δ339-399-HA and pcDNA3.1-ROP18-3×Flag; lysates immunoprecipitated with anti-HA antibody and protein A-agarose at 4 °C, western blot.

Assay [4] deals with HA-tagged P2X1 with a deletion of the C-terminus, amino acids 339-399 (pcDNA3.1-P2X1Δ339-399-HA) (human) (UniProt P51575). Described as above.

These are yes or no findings as the source states them, for the method shown. Binding seen in cells or lysates may run through a third protein. Some results given as binding are weak or reduced against the parent protein; the word gives no strength. Where a sequence is shown, tags or fusion partners need not be part of it.

B1: Endogenous P2X1 from SF268 cells (receptor, UniProt P51575 1-399)
chain: T2 sequence
Take B1: the binding result in assay [1] is recorded as “binds”.

B2: Toxoplasma gondii rhoptry protein 18 (TgROP18) fused to ECFP (pECFP-N1-ROP18) (protein, UniProt Q2PAY2 1-554)
chain: T1 sequence
As to B2, in assay [2], the binding entry is recorded as “binds”.

B3: Flag-tagged TgROP18 (pcDNA3.1-ROP18-3×Flag) (protein, UniProt Q2PAY2 1-554)
chain: T1 sequence
On to B3, for which the figures for the binding entry in assay [3] and in assay [4] were “binds” and “no binding”, respectively.

The values above are taken from publication PMC6547611.
